Test system: mitochondria or chloroplast of Chlamydomonas reinhardtii
Experiment: Subcellular localization of Venus reporter by epifluorescence microscopy (manual targeting assignment)
Assay type: cell-based
Conditions: Type HA-RAMP; set to which the native HA-RAMP is assigned (mt-set or cp-set)
Source text: In a bid to keep peptidase recognition sites intact, C-terminal elements were designed to start 10 residues upstream of the cleavage site, even though this slightly truncates TP helices. Peptides carrying the 15-amino-acid cTP N-terminus (cTP-N) will be denoted ^cP. Similarly, peptides with C-terminal elements from RCA1-cTP (cTP-C) or CAG2-mTP (mTP-C) will be denoted P^c or P^m, respectively. Peptide variants are used to drive the subcellular localization of a Venus fluorescent reporter protein, which was assessed using fluorescence microscopy; in Figure 2, an executive overview of observed Venus localization is presented for all constructs. […] Here, we use automated image segmentation to validate our subcellular localization assessment (Supplemental Figure 2, Supplemental text). […] The reader will be asked to return to Figure 2 throughout, with Figures 3 and 4 providing selected micrographs as examples highlighting particular points of interest.
Chlamydomonas TP sequences were amplified from genomic DNA extracted from strain T222+ (CC-5101). Templates for codon-optimized HA-RAMP, RP, and R→K modified TP sequences were obtained by gene synthesis (Eurofins Genomics). Correct assembly was verified by sequencing (Eurofins Genomics). Linear transformation cassettes were generated through restriction digestion with EcoRV (New England Biolabs).
Constructs were transformed into wild-type strain T222+ (CC-5101) using a protocol described previously ([Onishi and Pringle, 2016]), except using 4 μl of DNA at 2 μg/μl.
Strains with suspected mitochondrial targeting were treated with 0.1 μM MitoTracker Red CMXRos (Thermo Fisher Scientific) in growth medium for 30 min in the dark and washed with TAP prior to taking images.
Legend for Fig. S3 – S20. Three independent transformant lines (Strains 1-3) are shown for each combination of modifications (A-L), represented by a cartoon and a shorthand description (cf. Fig.
2). Where a construct was interpreted as generating reporter localization in mitochondria or […]
Epifluorescence microscopy images of typical cells for each strain are shown. MitoTracker fluorescence, false-coloured in cyan, indicates the position of mitochondria (although parts of the cell exterior are sometimes also stained). False-coloured yellow fluorescence from the Venus channel reports on the subcellular localization of the fluorescent reporter. Chlorophyll autofluorescence, shown in magenta, indicates the location of the chloroplast. Scale bars are 5µm. Brightness (Br.) was adjusted for clarity: fluorescence intensity values were restricted to the range shown for each channel by matching coloured rectangles. Intensity scales to 0 at the bottom of the panel, and to 65535 at the top.
On the right-hand side, quantitative information associated with each construct is shown. Data was normalized such that averages range from 0 to 1 across all constructs (cf. Fig S2). Individual cell measurements may exceed this range; for clarity, the range shown here is limited to -0.5 to 1.5, with outliers that have more extreme values shown as lying beyond a dashed line. Strain 1 is plotted as circles, strain 2 as squares, and strain 3 as diamonds. Venus: Fluorescence plate reader data of transformants screened for this construct (Venus fluorescence, accounting for cell density using linear regression of OD750 and chlorophyll fluorescence trained on ‘no venus’ control transformants). Transformants that were not selected after screening are shown as small grey circles. A colour code ranging from white (low Venus fluorescence) to black (high Venus fluorescence) is used for strains 1-3 and the average thereof. Automated image quantification data: pyr/chl: Venus channel signal in the pyrenoid relative to in the chlorophyll region; mt/cell: Venus channel signal in mitochondria relative to the whole cell. Each point corresponds to a single cell.
The colour code code is the same as that below distributions in Fig. S2, i.e. blue highlights the […]
For “GIGKFLHSAKKFGKAFVGEIMNS [MII, magainin 2, HA-RAMP antimicrobial peptide, reference compound]”, the Localisation was “mt-set”. With “GKIPVKAIKKAGAAIGKGLRAINIASTAHDVYSFFKPKHKKK [SIM, SI moricin, HA-RAMP antimicrobial peptide, reference compound]” the Localisation was “cp-set”. For “GLFSKFNKKKIKSGLIKIIKTAGKEAGLEALRTGIDVIGCKIKGEC [E1S, esculentin-1SEA, HA-RAMP antimicrobial peptide, reference compound]”, the Localisation was “cp-set”.

Test system: mitochondria or chloroplast of Chlamydomonas reinhardtii
Experiment: not given
Conditions: native Chlamydomonas reinhardtii targeting peptide (Type Cr mTP / Cr cTP); localisation as annotated in the data set, not a Venus construct tested here; cited from earlier work
For “MAALMQKSALSRPACSTRSSRRAVVVRAAADRKLWA [cTPCHL32]”, the Localisation is listed as “Chloroplast”. For “MAFALSFSRKALQVSAKATGKKGTGKTAAKQ [cTPCHL26]”, the Localisation is given as “Chloroplast”. For “MALAAAAARRAVADGVPGLIYSLRWSRLGLHSTSAAW [mTPCHL12]”, the Localisation is listed as “Mitochondria”. In the case of “MALCMQTRSVGAVRRTSAVRSAPFRGSRMVVRAT [cTPCHL3]”, the Localisation is listed as “Chloroplast”. In the case of “MALLAPTTRCLSRPASSSRAAVAVPRLPIRARNVRVF [cTPCHL34]”, the Localisation is listed as “Chloroplast”. For “MALLMRSQTLRPVSAVASRRVSVVVRAQAGAEKSASNTTGKAKL [cTPCHL2]”, the Localisation is given as “Chloroplast”. In the case of MALMMKSSASLKAVSAGRSRRAVVVRA [cTPCHL18], the Localisation is listed as “Chloroplast”. For “MALRLFGRRAGQLGSSLAQATRAAAVATGELSASCSELFSRQSSVASSSHVREELAAFGVADARFRGLLHMRGLQTSALAM [mTPCHL13]”, the Localisation is listed as “Mitochondria”. In the case of “MALRNAASFLGKSLAGAAELGFSAAKTAGGEALTNAFVTDGVRH [mTPCHL27]”, the Localisation is listed as “Mitochondria”. In the case of MALSMIAQRRAGAFSARQAPRAVRAQ [cTPCHL16], the Localisation is listed as “Chloroplast”. In the case of “MALSMIRKSAAAPVRRAAAAPVVVRGRRVITF [mTPCHL2]”, the Localisation is given as “Mitochondria”. For “MALSMRTLSARTAAPRGFSGRRVAAVSNGSRVTM [cTPCHL29]”, the Localisation is given as “Chloroplast”. For “MALSSAANVVRSAVLQHLRVTVTSSLQSSSLPTFTNIISRGF [mTPCHL1]”, the Localisation is listed as “Mitochondria”. For MALTMKRSGVAARSASSRKSVVTCVA [cTPCHL15], the Localisation is given as “Chloroplast”. For MAMLLKSRVSAGVSRPSRATVRVSA [cTPCHL13], the Localisation is given as “Chloroplast”. In the case of “MAPQTSPMVSAALATMQPKQEQQPAVPALSSALNTGILGKMVAA [mTPCHL32]”, the Localisation is given as “Mitochondria”. In the case of MASGLLRSLGVLSRNCAGSVQEGAVRAF [mTPCHL25], the Localisation is given as “Mitochondria”. For “MAVAMRSSTGLRATAARRQMPLGLGRVSTVRVCAADTKKAQVISPVNGD [cTPCHL5]”, the Localisation is listed as “Chloroplast”. For MHSLSKALLGSGRRGQQNSALLQAVRFY [mTPCHL31], the Localisation is listed as “Mitochondria”. In the case of MIAAKSQVALGRRAPVRGQRVVAA [cTPCHL12], the Localisation is listed as “Chloroplast”. In the case of “MLAHTNLTSSGASTVRPAHKRFHGRVSVVPRA [cTPCHL27]”, the Localisation is given as “Chloroplast”. For “MLANVVSRKASGLRQTPARATVAVKSVSGRRTTAAEPQTAAPVAAEDVFAYTKNLPGVTAPFEGVF [cTPCHL1]”, the Localisation is listed as “Chloroplast”. For “MLARAACLLARSAEQAQLPQIMVRTFAAAAA [mTPCHL28]”, the Localisation is given as “Mitochondria”. In the case of MLILGAQEYYALVCNAEWF [cTPCHL9], the Localisation is listed as “Chloroplast”. For MLKRVGQSLVPFARAGLTQTAESFRG [mTPCHL20], the Localisation is given as “Mitochondria”. In the case of MLRGQRSSPVLRAGHRFFASA [mTPCHL8], the Localisation is given as “Mitochondria”. For “MLRKGAQAVLQAERAGPQQTCAAAQTAFTRQF [mTPCHL17]”, the Localisation is listed as “Mitochondria”. For MLRNAARRLMAVGQRGISTSAMTM [mTPCHL3], the Localisation is given as “Mitochondria”. For “MLSMLGRKGQAMCLRSSRQVPSTRASIARLLAQTPRPNVRAN [mTPCHL9]”, the Localisation is listed as “Mitochondria”. For “MLSRALLLAGRLAATGQQQAASTSSRAVQPLGSLLQRCNF [mTPCHL22]”, the Localisation is listed as “Mitochondria”. For MLSSVRLAALRAGKTNSVFQAVRAFA [mTPCHL19], the Localisation is listed as “Mitochondria”. For MLSTRTRASAAPASRRSRSTVVSVRA [cTPCHL17], the Localisation is given as “Chloroplast”. For MMLKASPAARAAARPAARNVRMM [cTPCHL11], the Localisation is listed as “Chloroplast”. For “MMLTQGRAFAAQRPAVQQRRMAVRANVARVPQVN [cTPCHL31]”, the Localisation is given as “Chloroplast”. For MMSLRAASRKQELPSLLLAQART [mTPCHL24], the Localisation is listed as “Mitochondria”. For “MNRLGALSGLLARAARTCSRRWATAASGVPAELSAVGIVGQEFAAQARSLHTSLTTCQ [mTPCHL21]”, the Localisation is given as “Mitochondria”. In the case of “MPRGQGKRLAQLLGAQLKQYAAEVRGISTAGGASRGGARGPASPSSLEQQTRQV [mTPCHL7]”, the Localisation is given as “Mitochondria”. For “MPVLAKLLGGASKASSLQQLAGLGQRAALAATQQAGF [mTPCHL14]”, the Localisation is listed as “Mitochondria”. In the case of MQAKMQTRAVSGRAAARSRVSTTKVVC [cTPCHL19], the Localisation is given as “Chloroplast”. In the case of “MQALASHRTLATPARPRALGCASLPFRPIGAQAMRRPAREGAVTVHARSGGYSAPGGGRGYSSTPGIVDRVLAALPY [cTPCHL4]”, the Localisation is listed as “Chloroplast”. For MQALATRPSAIRPTKAARRSSVVVRA [cTPCHL14], the Localisation is given as “Chloroplast”. For MQALRRAVSTAMPGFRR [mTPCHL30], the Localisation is given as “Mitochondria”. In the case of MQMQQQRMRFSRDARRIG [cTPCHL8], the Localisation is listed as “Chloroplast”. In the case of MQRSILSALLPRLPLGVREF [mTPCHL11], the Localisation is given as “Mitochondria”. For MQRSTELVGAFQRAGAALASPAASRQ [mTPCHL34], the Localisation is given as “Mitochondria”. In the case of “MQRTGGLVSQLAGAQLTGALQELKTGVLLAF [mTPCHL23]”, the Localisation is given as “Mitochondria”. For MQRTVQGISQLARALSSAHAVAGQRCFA [mTPCHL15], the Localisation is given as “Mitochondria”. For “MQSLASRPCVLRAQRPFTAKRSSVVRVRA [cTPCHL21]”, the Localisation is listed as “Chloroplast”. In the case of “MQTKAFTSARPQRAAALKAQRTSSVTVRA [cTPCHL23]”, the Localisation is given as “Chloroplast”. In the case of “MQTLASRPSLRASARVAPRRAPRVAVVTKA [cTPCHL24]”, the Localisation is listed as “Chloroplast”. For MQTLSVKSTRASVVPRRGRATTVAVKA [cTPCHL20], the Localisation is listed as “Chloroplast”. In the case of MQTMRVAFRPAATSRSTVVTRA [cTPCHL10], the Localisation is listed as “Chloroplast”. For “MQTTLKQQRASGRVSARQPFRSAAVARPRRSTVRVQA [cTPCHL33]”, the Localisation is given as “Chloroplast”. In the case of “MQVSFARSTVSRARAGISGRTSRRTHVAVSN [cTPCHL25]”, the Localisation is given as “Chloroplast”. In the case of MRLAAQRSRGLLAPGARFLRTSAASA [mTPCHL26], the Localisation is listed as “Mitochondria”. For “MRLLVACALLALLQLSAAVRLPAAIEQAVGRQLL [cTPCHL30]”, the Localisation is given as “Chloroplast”. For “MRRQAVTCLRGLWRAGSASQEVANQAGASSFALQGLLAQTERGLRTSVDAKDAKIAPLSAMPWSLQAARS [mTPCHL10]”, the Localisation is given as “Mitochondria”. For “MRRSAARLLRGVGQAVARSGEVAEASAVKLFDINASRGLSAQTLSMLGALSHAATPLPSGFAASGIRS [mTPCHL5]”, the Localisation is given as “Mitochondria”. For “MRSAAVRVLGAQWAGVGAQEAGSRAARAF [mTPCHL16]”, the Localisation is listed as “Mitochondria”. For MRSLKQILRIGEASSLGLRAF [mTPCHL33], the Localisation is given as “Mitochondria”. For “MRSQALSLARAGLLQLSSQTGASLEGGFALSKRAEQALIRASRAF [mTPCHL18]”, the Localisation is given as “Mitochondria”. In the case of “MSMCIARGSVRGCARPVVAQHRPARSRVVSIAC [cTPCHL28]”, the Localisation is given as “Chloroplast”. In the case of “MSSATRNVLSMLPALGRVGAQQAAGAAASLLFTRGY [mTPCHL6]”, the Localisation is listed as “Mitochondria”. In the case of “MSSRNVATALRMFATLGRSQAGEASAMMGTGSALLAQRAAALGGASAVNKGCSCRCGRVACMGACMPMRH [mTPCHL29]”, the Localisation is listed as “Mitochondria”. For “MSSTATMPGQRSAMKAAGAQSRRAVKVMA [cTPCHL22]”, the Localisation is given as “Chloroplast”. In the case of MVAVRGRRALAVRA [cTPCHL6], the Localisation is given as “Chloroplast”. In the case of “MVQALCSAGAARRGGRQAYSFLASLLSQQRGF [mTPCHL4]”, the Localisation is given as “Mitochondria”. In the case of MWEEECKNMQASKKRSS [cTPCHL7], the Localisation is listed as “Chloroplast”.

Source: article PMC10363480 (Plant Communications, 2023)
